Data as given in the supplement of paper PMC10849652.
The other results are listed elsewhere or left out.

Protein sequences, listed by entry. Tags and fused reporters are not part of them. Lines headed by an entry give the natural chain unless they say otherwise; changes in a name come on top.
UniProt Q96BN2: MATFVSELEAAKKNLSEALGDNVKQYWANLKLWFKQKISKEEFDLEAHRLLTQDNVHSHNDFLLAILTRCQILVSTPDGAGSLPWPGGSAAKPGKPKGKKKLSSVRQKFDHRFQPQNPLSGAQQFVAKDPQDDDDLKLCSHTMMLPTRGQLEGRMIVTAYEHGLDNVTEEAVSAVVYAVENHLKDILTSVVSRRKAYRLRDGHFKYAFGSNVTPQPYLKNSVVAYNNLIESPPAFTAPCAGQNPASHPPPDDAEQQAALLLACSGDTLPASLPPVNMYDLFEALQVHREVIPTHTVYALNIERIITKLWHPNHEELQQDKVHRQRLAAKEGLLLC
UniProt Q9NYJ8: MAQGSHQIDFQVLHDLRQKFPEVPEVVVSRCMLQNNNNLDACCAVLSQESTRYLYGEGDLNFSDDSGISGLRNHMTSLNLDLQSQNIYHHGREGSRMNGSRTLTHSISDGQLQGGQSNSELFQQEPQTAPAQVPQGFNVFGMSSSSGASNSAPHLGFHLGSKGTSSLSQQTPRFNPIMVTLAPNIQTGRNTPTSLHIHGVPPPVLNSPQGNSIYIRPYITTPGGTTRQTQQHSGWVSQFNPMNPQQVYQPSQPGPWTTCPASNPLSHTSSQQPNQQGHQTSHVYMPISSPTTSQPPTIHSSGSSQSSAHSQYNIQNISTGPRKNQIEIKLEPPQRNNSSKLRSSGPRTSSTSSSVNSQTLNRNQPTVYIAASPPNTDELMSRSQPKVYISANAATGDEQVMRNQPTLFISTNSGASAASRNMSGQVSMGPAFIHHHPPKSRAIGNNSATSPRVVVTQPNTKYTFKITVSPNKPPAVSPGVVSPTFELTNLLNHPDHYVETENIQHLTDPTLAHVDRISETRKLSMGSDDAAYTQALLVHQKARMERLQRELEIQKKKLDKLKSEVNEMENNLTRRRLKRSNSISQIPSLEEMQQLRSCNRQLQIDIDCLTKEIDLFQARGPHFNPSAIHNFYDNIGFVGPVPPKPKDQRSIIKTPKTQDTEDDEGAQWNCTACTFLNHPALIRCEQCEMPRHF
UniProt Q9H7L9: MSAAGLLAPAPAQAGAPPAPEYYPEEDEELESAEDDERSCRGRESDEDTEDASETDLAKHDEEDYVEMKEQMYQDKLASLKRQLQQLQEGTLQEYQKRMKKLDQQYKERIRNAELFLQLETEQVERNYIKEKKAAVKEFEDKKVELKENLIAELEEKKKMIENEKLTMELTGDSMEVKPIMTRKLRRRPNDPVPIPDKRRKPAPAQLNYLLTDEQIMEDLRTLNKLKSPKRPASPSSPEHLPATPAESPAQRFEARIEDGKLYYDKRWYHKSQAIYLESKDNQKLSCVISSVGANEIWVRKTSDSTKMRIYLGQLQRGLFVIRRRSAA
UniProt Q9UMX1: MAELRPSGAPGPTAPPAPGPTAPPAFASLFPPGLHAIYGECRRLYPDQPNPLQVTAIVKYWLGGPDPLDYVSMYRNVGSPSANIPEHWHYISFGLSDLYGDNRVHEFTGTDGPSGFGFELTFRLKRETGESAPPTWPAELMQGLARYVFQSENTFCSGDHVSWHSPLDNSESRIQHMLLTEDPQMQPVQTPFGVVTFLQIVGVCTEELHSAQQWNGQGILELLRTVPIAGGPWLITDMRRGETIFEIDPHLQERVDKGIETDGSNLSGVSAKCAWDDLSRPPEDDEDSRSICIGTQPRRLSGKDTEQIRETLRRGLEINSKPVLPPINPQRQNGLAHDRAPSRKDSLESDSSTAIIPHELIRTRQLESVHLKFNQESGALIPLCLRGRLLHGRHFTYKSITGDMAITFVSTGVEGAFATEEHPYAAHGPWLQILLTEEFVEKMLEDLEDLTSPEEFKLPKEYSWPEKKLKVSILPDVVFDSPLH
UniProt Q9BXI6: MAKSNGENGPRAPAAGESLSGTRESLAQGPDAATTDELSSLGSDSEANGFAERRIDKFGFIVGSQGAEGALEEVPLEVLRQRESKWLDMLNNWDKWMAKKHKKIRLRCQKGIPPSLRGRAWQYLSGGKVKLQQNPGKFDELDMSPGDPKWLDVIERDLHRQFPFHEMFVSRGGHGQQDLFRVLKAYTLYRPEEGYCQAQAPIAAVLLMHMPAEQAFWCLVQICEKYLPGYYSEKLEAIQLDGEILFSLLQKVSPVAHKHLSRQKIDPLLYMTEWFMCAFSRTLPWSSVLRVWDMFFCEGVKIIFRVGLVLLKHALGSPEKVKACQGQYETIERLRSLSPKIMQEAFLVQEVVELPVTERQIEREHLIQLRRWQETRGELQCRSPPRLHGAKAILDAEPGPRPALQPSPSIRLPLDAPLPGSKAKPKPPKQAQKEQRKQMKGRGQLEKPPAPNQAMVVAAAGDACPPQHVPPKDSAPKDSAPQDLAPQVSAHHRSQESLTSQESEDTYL
UniProt O75529: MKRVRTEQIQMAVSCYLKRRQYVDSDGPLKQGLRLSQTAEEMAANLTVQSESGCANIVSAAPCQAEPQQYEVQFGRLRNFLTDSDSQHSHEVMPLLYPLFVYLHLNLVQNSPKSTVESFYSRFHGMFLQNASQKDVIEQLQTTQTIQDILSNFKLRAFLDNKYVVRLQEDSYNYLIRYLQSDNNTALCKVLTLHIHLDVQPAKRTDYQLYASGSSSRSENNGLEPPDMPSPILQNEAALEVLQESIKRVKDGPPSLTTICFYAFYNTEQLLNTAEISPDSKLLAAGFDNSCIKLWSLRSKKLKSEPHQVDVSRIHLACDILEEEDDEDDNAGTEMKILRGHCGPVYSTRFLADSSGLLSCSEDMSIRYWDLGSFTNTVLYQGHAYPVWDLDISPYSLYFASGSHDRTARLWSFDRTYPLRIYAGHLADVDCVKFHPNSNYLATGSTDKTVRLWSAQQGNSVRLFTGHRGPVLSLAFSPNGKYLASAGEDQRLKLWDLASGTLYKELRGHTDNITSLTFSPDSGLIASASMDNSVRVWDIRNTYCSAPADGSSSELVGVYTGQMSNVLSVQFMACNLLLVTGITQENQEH

Experiments:
Assay in all cases: log2 fold change, soluble protein after heating vs DMSO (PISA); higher = thermal stabilisation; K562 cells, 10 uM, 30 min; active = over 0.2 and 3.5 SD of the protein, either way, in both replicates (recomputed)
volasertib = compound: CC[C@@H]1C(=O)N(C)c2cnc(Nc3ccc(C(=O)N[C@H]4CC[C@H](N5CCN(CC6CC6)CC5)CC4)cc3OC)nc2N1C(C)C [volasertib]
In short: (§1)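 K562 cells at 2×10^6 cells/mL were given 10 μM compound for 30 min. Aliquots then went through 3 min of heating across 48°C-58°C, were pooled, and were extracted in PBS with 0.5% NP-40 at 4°C, and the supernatant after 21,000xg for 90 min was quantified by TMTpro 16plex LC-MS/MS with channel sums equalised. Thermal stability relative to control samples, from duplicates, is given as log2 fold change.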

[1] = compound: CCn1c(C(=O)N(C2CC2)C2CC2)cc2c3c(ncn3C)c(Nc3cc(C)n(C)n3)nc21
In short: as §1

[2] = compound: CNC(=O)C1=CC=CC=C1NC2=NC(=NC=C2Cl)NC3=C(C=C(C=C3)N4CCOCC4)OC
In short: as §1

[3] = compound: CN1C2=C(C3=C1C(=O)N(N=C3)CC4=CC(=CC=C4)N)SC(=C2)S(=O)C
In short: as §1

saracatinib = compound: CN1CCN(CCOc2cc(OC3CCOCC3)c3c(Nc4c(Cl)ccc5c4OCO5)ncnc3c2)CC1 [saracatinib]
In short: as §1

[4] = compound: CNc1nc(-c2ccc3c(N)n[nH]c3c2)cc(N2C[C@@H](C(=O)NC3CCCCC3)CC[C@H]2C)n1
In short: as §1

epoxomicin = compound: CC[C@H](C)[C@@H](C(=O)N[C@@H]([C@@H](C)O)C(=O)N[C@@H](CC(C)C)C(=O)[C@]1(CO1)C)NC(=O)[C@H]([C@@H](C)CC)N(C)C(=O)C [epoxomicin]
In short: as §1

[5] = compound: CN(C)CC(=O)Nc1ccc2[nH]c(=O)c3ccccc3c2c1
In short: as §1

Tubastatin A = compound: CN1CCc2c(c3ccccc3n2Cc2ccc(C(=O)NO)cc2)C1 [Tubastatin A]
In short: as §1

defactinib = compound: CNC(=O)c1ccc(Nc2ncc(C(F)(F)F)c(NCc3nccnc3N(C)S(C)(=O)=O)n2)cc1 [defactinib]
In short: as §1

rucaparib = compound: CNCc1ccc(-c2[nH]c3cc(F)cc4c3c2CCNC4=O)cc1 [rucaparib]
In short: as §1

encorafenib = compound: COC(=O)N[C@@H](C)CNc1nccc(-c2cn(C(C)C)nc2-c2cc(Cl)cc(NS(C)(=O)=O)c2F)n1 [encorafenib]
In short: as §1

[6] = compound: COC(=O)[C@H](CCSC)NC(=O)C1=C(C=C(C=C1)NC[C@H](CS)N)C2=CC=CC=C2
In short: as §1

sotrastaurin = compound: CN1CCN(c2nc(C3=C(c4c[nH]c5ccccc45)C(=O)NC3=O)c3ccccc3n2)CC1 [sotrastaurin]
In short: as §1

[7] = compound: CC[C@@H]1C(=O)N(C)c2cnc(Nc3ccc(C(=O)NC4CCN(C)CC4)cc3OC)nc2N1C1CCCC1
In short: as §1

[8] = compound: CC[C@H](C)N1C=C(C2=C(C=C(C=C21)C3=CN=C(C=C3)N4CCNCC4)C(=O)NCC5=C(C=C(NC5=O)C)C)C
In short: as §1

rosiglitazone = compound: CN(CCOC1=CC=C(C=C1)C[C@H]2C(=O)NC(=O)S2)C3=CC=CC=N3 (racemic) [rosiglitazone]
In short: as §1

alvocidib = compound: CN1CC[C@H](c2c(O)cc(O)c3c(=O)cc(-c4ccccc4Cl)oc23)[C@H](O)C1 [alvocidib]
In short: as §1

[9] = compound: CCn1cc(-c2ccnc3[nH]c(-c4cccc(CN(C)C)c4)cc23)c(-c2ccc(NC(=O)N(C)C)cc2)n1
In short: as §1

[10] = compound: CN1CCC(CNc2ccc3ncc(-c4cccc(OC(F)(F)F)c4)n3n2)CC1
In short: as §1

Measured: log2 fold change

TADA1 (UniProt Q96BN2)
inactive: volasertib -0.2 | [1] -0.02 | [2] -0.016

TAZ (UniProt Q16635)
inactive: volasertib -0.188 | [3] -0.038 | saracatinib -0.172 | [4] 0.028

SYK (UniProt P43405)
inactive: volasertib 0.196 | epoxomicin 0.022 | [5] -0.085 | [3] -0.052 | saracatinib -0.151 | Tubastatin A 0.355 | [2] -0.113 | defactinib 0.249 | rucaparib 0.258 | [4] 0.03 | encorafenib 0.112 | [6] -0.012

TAB2 (UniProt Q9NYJ8)
inactive: epoxomicin 0.044 | [5] 0.177 | sotrastaurin 0.109 | Tubastatin A 0.249 | defactinib -0.187 | [6] -0.036

SUDS3 (UniProt Q9H7L9)
inactive: [7] 0.017 | [8] -0.056 | epoxomicin -0.174 | [1] 0.045 | [5] 0.012 | rosiglitazone -0.029 | [3] -0.109 | saracatinib -0.107 | sotrastaurin 0.058 | alvocidib 0.029 | Tubastatin A 0.158 | [2] 0.05 | defactinib 0.075 | rucaparib -0.023 | [4] 0.106 | encorafenib -0.101 | [6] 0.151

SUFU (UniProt Q9UMX1)
inactive: [1] -0.324 | rosiglitazone 0 | [2] 0.061

TBC1D10A (UniProt Q9BXI6)
inactive: volasertib 0.132 | epoxomicin -0.01 | [9] 0.135 | [5] 0.118 | rosiglitazone 0.112 | [3] 0.111 | [10] -0.421 | saracatinib -0.061 | Tubastatin A 0.086 | defactinib -0.264 | [4] 0 | [6] 0.089

TAF5L (UniProt O75529)
inactive: [7] -0.043 | rosiglitazone 0.099 | rucaparib 0.115 | encorafenib 0.133
